# Measurements: US12486514B2, “Method to specifically stimulate survival and expansion of genetically-modified immune cells” (National University of Singapore, priority 2018, dated 2025)
# Tested on: peripheral blood T lymphocytes
# Test: Surface EpoR and GFP expression by flow cytometry in transduced T lymphocytes
# Assay type: cell-based, human
# Details: for mean fluorescence intensity (MFI) of EpoR / percentage of GFP+ T cells expressing EpoR: 18 experiments with T lymphocytes from 7 donors; for MFI of GFP / percentage of GFP+ T cells: overall GFP expression after transduction
Molecule,percentage of transduced T lymphocytes (GFP+) expressing EpoR (5 experiments with T cells from 4 donors),mean fluorescence intensity (MFI) of EpoR,percentage of GFP+ T cells expressing EpoR,MFI of GFP,percentage of GFP+ T cells,"persistence of surface EpoR after exposure to Epo (10 IU/mL Epo, T cells from 3 donors)"
EpoR: wild-type human erythropoietin receptor (SEQ ID NO: 2) expressed in T cells by MSCV retroviral transduction (protein) MDHLGASLWPQVGSLCLLLAGAAWAPPPNLPDPKFESKAALLAARGPEELLCFTERLEDLVCFWEEAASAGVGPGNYSFSYQLEDEPWKLCRLHQAPTARGAVRFWCSLPTADTSSFVPLELRVTAASGAPRYHRVIHINEVVLLDAPVGLVARLADESGHVVLRWLPPPETPMTSHIRYEVDVSAGNGAGSVQRVEILEGRTECVLSNLRGRTRYTFAVRARMAEPSFGGFWSAWSEPVSLLTPSDLDPLILTLSLILVVILVLLTVLALLSHRRALKQKIWPGIPSPESEFEGLFTTHKGNFQLWLYQNDGCLWWSPCTPFTEDPPASLEVLSERCWGTMQAVEPGTDDEGPLLEPVGSEHAQDTYLVLDKWLLPRNPPSEDLPGPGGSVDIVAMDEGSEASSCSSALASKPSPEGASAASFEYTILDPSSQLLRPWTLCPELPPTPPHLKYLYLVVSDSGISTDYSSGDSQGAQGGLSDGPYSNPYENSLIPAAEPLPPSYVACS,74.9%±4.8%,"3,620±2,449",71.9%±14.1%,"7,003±2,820",75.2%±8.4%,–
"EpoRm: truncated mutant Epo receptor, codon 439 TGG (Trp) changed to TAG (stop), SEQ ID NO: 6, expressed in T cells (protein) MDHLGASLWPQVGSLCLLLAGAAWAPPPNLPDPKFESKAALLAARGPEELLCFTERLEDLVCFWEEAASAGVGPGNYSFSYQLEDEPWKLCRLHQAPTARGAVRFWCSLPTADTSSFVPLELRVTAASGAPRYHRVIHINEVVLLDAPVGLVARLADESGHVVLRWLPPPETPMTSHIRYEVDVSAGNGAGSVQRVEILEGRTECVLSNLRGRTRYTFAVRARMAEPSFGGFWSAWSEPVSLLTPSDLDPLILTLSLILVVILVLLTVLALLSHRRALKQKIWPGIPSPESEFEGLFTTHKGNFQLWLYQNDGCLWWSPCTPFTEDPPASLEVLSERCWGTMQAVEPGTDDEGPLLEPVGSEHAQDTYLVLDKWLLPRNPPSEDLPGPGGSVDIVAMDEGSEASSCSSALASKPSPEGASAASFEYTILDPSSQLLRP",–,"8,773±5,851",93.1%±6.1%,"8,331±3,343",80.4%±7.5%,longer persistence after exposure to Epo
